Laboratory results reported in PubChem BioAssay AID485298 (National Center for Advancing Translational Sciences (NCATS), 2010).
In all, about 320,000 compounds went through this assay and about 740 (0.23%) were called active. The shares of active, inactive and inconclusive entries below differ from those in the screen. Calls follow the shape of the dose curve; as a rule, active = well fitted activation curve with a large enough effect; inconclusive = small, poorly fitted or top-dose-only effect; inactive = no such curve, though single readings can be large or run the other way. Potencies of inconclusive entries are doubtful fits and often do not repeat.

assay: qHTS Assay for Small Molecule Inhibitors of Mitochondrial Division or Activators of Mitochondrial Fusion; also: nearly all actives have a fitted effect of over 45% in size;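 as to growth rescue (activation): temperature-sensitive fusion mutants such as fzo1-1 at 37 °C on non-fermentable ethanol glycerol medium; % of control where 0% means no effect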; conditions: S. cerevisiae fusion-defective mutant growth rescue, CellTiterGlo 48 h; growth rescue (activation): at 46.1 µM (top of the series) unless noted
Procedure, shortened: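 Yeast fusion mutant, YPEG (non-fermentable carbon), compound, 48 h at 37C non-permissive; CellTiterGlo added, 10 min RT, luminescence read. Rescued growth = division inhibition.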
Potency is read from the fitted curve at half-maximal effect.

| Compound | Potency | growth rescue (activation) |
| --- | --- | --- |
| COc1cc(/C=N/NC(=S)NCCc2ccccc2)cc(OC)c1OC | inconclusive: 25.1 µM [activator, single point] |  |
| O=C(Nc1ncc(Cc2ccccc2Cl)s1)C1CCCO1 (stereo not given) |  | inactive: 8.23% |
| Nc1nc(NCC2CCCO2)nc(Nc2ccccc2)c1[N+](=O)[O-] (stereo not given) | inconclusive: 15.8 µM [activator, partial curve] |  |
| Cc1cccc(N=C2NC(=O)/C(=C/C=C/c3ccco3)S2)c1C | inconclusive: 35.5 µM [activator, partial curve] |  |
| COc1ccc2[nH]c(C)c(CCN(Cc3cccs3)C(=S)Nc3cccc(F)c3)c2c1 | inconclusive: 31.6 µM [activator, single point] |  |
| CCOC(=O)CN1C(c2ccccc2O)Nc2ccc(Br)cc2C1c1ccccc1 (stereo not given) |  | inactive: 3.41% |
| CCOc1nc(N2CCOCC2)nc(C)c1[N+](=O)[O-] | inconclusive: 15.8 µM [activator, partial curve] |  |
| CSCC[C@H](NC(=O)Nc1ccc(C)cc1C)C(=O)O |  | inconclusive: 50.7% [activator] [at 0.369 µM] |
| COc1ccc(/C=N/NC(=S)NCCc2ccccc2)cc1 |  | inactive: -16.4% |
| COc1cc(NCc2ccccc2)c2ncn(C(C)C)c2c1 | inconclusive: 22.4 µM [activator, single point] |  |
| Cc1cccc(NS(=O)(=O)c2ccc(C(=O)NCC3(N4CCCCC4)CCCCC3)cc2)c1C |  | inactive: 0.365% |
| CCOC(=O)CSc1cc(-c2ccccc2)nc2ncnn12 | inconclusive: 5.62 µM [activator, single point] |  |
| COc1ccc(NC(=O)c2nc[nH]c2C(=O)N[C@H](C)c2ccccc2)cc1 | inconclusive: 35.5 µM [activator, single point] |  |
| CC(=O)N1N=C(c2cccs2)CC1c1ccc(Br)cc1 (stereo not given) |  | inactive: -0.897% |
| Cc1ccc(C(=O)N(C)Cc2ccc(N3CCOCC3)cc2)cc1S(=O)(=O)NCc1ccccc1 |  | inactive: 0.201% |
| COc1ccc(C(=O)NC2CCCc3c2cnn3-c2cc(F)cc(F)c2)c(OC)n1 (stereo not given) |  | inactive: -1.59% |
| O=C(CCCc1c[nH]c2ccccc12)Nc1ccc2ccccc2c1 | inconclusive: 22.4 µM [activator, single point] |  |
| C=CCSc1nc2[nH]ncc2c(=O)[nH]1 | inconclusive: 12.6 µM [activator, partial curve] |  |
| Cc1ccc2cc(CCl)c(Cl)nc2c1 |  | inactive: 6.06% |
| COC(=O)c1ccc(C2C(C(=O)c3cc4ccccc4o3)=C(O)C(=O)N2c2cc(C)on2)cc1 (stereo not given) |  | inactive: -0.506% |
| O=C(O)c1cc(-c2ccc(-c3c(-c4ccc5c(c4)OCO5)noc3-c3ccsc3)cc2)nc2ccccc12 |  | inactive: -10.4% |
| COc1ccccc1OCCN1CSC(=S)N(C)C1 | inconclusive: 5.01 µM [activator, single point] |  |
| CSc1nc(N)nc(SCCS(=O)(=O)c2ccc(Cl)cc2)c1C#N | inconclusive: 17.8 µM [activator, single point] |  |
| COc1ccc(-n2c(C)cc(/C=C3\C(=N)N4N=C(CC(=O)N5CCOCC5)SC4=NC3=O)c2C)c(OC)c1 | inconclusive: 35.5 µM [activator, partial curve] |  |

3 compounds drawn at random from those above, as already listed:

| Compound | Potency | growth rescue (activation) |
| --- | --- | --- |
| CSCC[C@H](NC(=O)Nc1ccc(C)cc1C)C(=O)O |  | inconclusive: 50.7% [activator] [at 0.369 µM] |
| COc1ccc(-n2c(C)cc(/C=C3\C(=N)N4N=C(CC(=O)N5CCOCC5)SC4=NC3=O)c2C)c(OC)c1 | inconclusive: 35.5 µM [activator, partial curve] |  |
| O=C(Nc1ncc(Cc2ccccc2Cl)s1)C1CCCO1 (stereo not given) |  | inactive: 8.23% |

The list goes on.

| Compound | Potency | growth rescue (activation) |
| --- | --- | --- |
| Cc1ccc(-n2cc(C(=O)c3cc(Cl)ccc3O)cc(C#N)c2=O)cc1 |  | inactive: 6.1% |
| O=C(COc1ccc2ccccc2c1)NCCn1ccc2ccccc21 | inconclusive: 17.8 µM [activator, single point] |  |
| Fc1ccc2nc(Nc3nc4cc5c(cc4s3)OCCO5)sc2c1 | active: 12.6 µM |  |
| O=C(CCc1ccccc1)OCC(=O)c1cccc([N+](=O)[O-])c1 |  | inactive: -5.86% |
| Cc1cccc(OCC(=O)OC(C)C(=O)Nc2ccc(S(=O)(=O)N3CCCCC3)cc2)c1 (stereo not given) | inconclusive: 22.4 µM [activator, single point] |  |
| Cc1ccc(S(=O)(=O)N2CCCCC2)cc1NC(=O)COc1ccccc1F | inconclusive: 20 µM [activator, partial curve] |  |
| O=C1NC(=S)N/C1=C/c1cccc2ccccc12 |  | inactive: 5.06% |
| COc1ccccc1N1CCN(C(=O)CNS(=O)(=O)c2ccc(Br)s2)CC1 |  | inactive: 10.8% |
| COc1ccc(C(=O)N/N=C(\C)c2ccc3c(c2)C2C=CCC2C(c2ccccc2)N3)cc1 (stereo not given) |  | inactive: 7.07% |
| Cc1cc(C)cc(COc2ccc3c(C)c(CC(=O)O)c(=O)oc3c2C)c1 | inconclusive: 15.8 µM [activator, partial curve] |  |
| CCOc1cccc(=O)c2c(C)n(Cc3ccccc3)c(C)c12 | inconclusive: 17.8 µM [activator, single point] |  |
| COCn1c(-c2cccc(Br)c2)nc2ccccc21 |  | inactive: 1.25% |
| CC1CCCCN1C(=O)CSc1nc(C2CC2)nc2c1cnn2-c1ccccc1 (stereo not given) | inconclusive: 22.4 µM [activator, single point] |  |
| COC(=O)c1sccc1NC(=O)CSc1ccccc1NS(=O)(=O)c1ccc(F)cc1 | inconclusive: 17.8 µM [activator, single point] |  |
| O=C(/C=C/c1cccc([N+](=O)[O-])c1)Nc1cccc(NC(=O)c2cccs2)c1 | inconclusive: 35.5 µM [activator, single point] |  |
| COc1ccc(-c2csc(NC(=O)CSc3nc(SC)ns3)n2)cc1 | inconclusive: 10 µM [activator, partial curve] |  |
| COC(=O)Cn1c(CN(C)Cc2ccccc2)nc2c1c(=O)n(C)c(=O)n2C |  | inactive: 1.4% |
| CN=c1nc(-c2ccccc2)n(-c2ccccc2)s1 | inconclusive: 18.4 µM [activator, single point] |  |
| COc1ccc(Cl)cc1NC(=O)CSc1nnc(Cc2cccn2C)n1-c1ccc(F)cc1 | inconclusive: 25.1 µM [activator, single point] |  |
| O=c1cc(C(F)(F)F)nc(SCc2cccc3ccccc23)[nH]1 | inconclusive: 2.51 µM [activator, full curve, poor fit] |  |
| CC1(c2ccccc2)NC(=O)N(Cc2ccc([N+](=O)[O-])cc2)C1=O (stereo not given) |  | inactive: -2.08% |
| Cc1cc(C(=O)O)ccc1-c1ccc(/C=C2\NC(=O)N(Cc3ccccc3Cl)C2=O)o1 |  | inactive: 9.16% |
| CC(C)CCNC(=O)CN(C(=O)CCC(=O)Nc1nccs1)c1ccc2c(c1)OCCO2 |  | inactive: -6.85% |
| COC(=O)Nc1ccc(S(=O)(=O)N2CCC(Cc3ccccc3)CC2)cc1 | inconclusive: 17.8 µM [activator, single point] |  |

| Compound | Potency | growth rescue (activation) |
| --- | --- | --- |
| CCCC1CCC(c2ccc(/C(N)=N/O)cc2)CC1 (stereo not given) | inconclusive: 17.8 µM [activator, single point] |  |
| COc1ccc(NC(=O)c2ccc(NC(=O)c3ccncc3)cc2)cc1 |  | inactive: 3.88% |
| COc1cc2c(cc1OC)C1CC(=O)C(CC(C)C)CN1CC2 (stereo not given) | inconclusive: 18.4 µM [activator, partial curve] |  |
| COc1ccc(OC)c2sc(N(CCCN(C)C)C(=O)CCS(=O)(=O)c3ccccc3)nc12 |  | inactive: -0.0451% |
| CC1(C)CCCN(C(=O)c2ccc3c(c2NCCO)C(=O)c2ccccc2C3=O)C1 | inconclusive: 20 µM [activator, single point] |  |
| CCc1cc(-c2n[nH]c(C)c2-c2nc(C)cs2)c(O)cc1OC | inconclusive: 31.6 µM [activator, single point] |  |
| N#Cc1c(-c2ccccc2)cc(C2CC2)nc1N | inconclusive: 14.1 µM [activator, partial curve] |  |
| NC(=O)[C@@H]1CC2(CC(c3cccc(NC(=O)CC(c4ccccc4)c4ccccc4)c3)=NO2)CN1C(=O)c1ccc(Cl)cc1 (stereo not given in full) | inconclusive: 35.5 µM [activator, partial curve, poor fit] |  |
| Cc1ccc(C)c(N2CCN(S(=O)(=O)c3c(C)noc3C)CC2)c1 | inconclusive: 0.891 µM [activator, full curve] |  |
| COc1ccc(Cl)cc1NC(=O)CN(C)C(=O)Cc1ccc(-c2ccccc2)cc1 | inconclusive: 15.8 µM [activator, single point] |  |
| CCOC(=O)c1cc2c(=O)n3ccccc3nc2n(CCCOC)c1=NC(=O)c1ccncc1 |  | inactive: -4.11% |
| CC(Oc1ccc(F)cc1)C(=O)Nc1cc(S(=O)(=O)N2CCOCC2)ccc1N1CCCCC1 (stereo not given) | inconclusive: 15.8 µM [activator, single point] |  |
| CC(=O)Nc1ccc(SCc2ncc(-c3ccccc3)o2)cc1 | inconclusive: 8.91 µM [activator, partial curve] |  |
| Cc1ccc(-c2cc(-c3ccccc3C)[nH]n2)c(O)c1 | inconclusive: 25.1 µM [activator, single point] |  |
| COc1ccc(Nc2nc(S(=O)(=O)c3ccc(C)cc3)c(Cl)s2)cc1 | inconclusive: 11.2 µM [activator, partial curve] |  |
| CC1CN(S(=O)(=O)c2cccc(C(=O)Nc3ccccc3N3CCCCC3)c2)CC(C)O1 (stereo not given) | inconclusive: 20 µM [activator, single point] |  |
| CN(Cc1ccccc1)c1nc(N)c([N+](=O)[O-])c(NCc2ccccc2)n1 | active: 11.2 µM |  |
| CC1CCCCC1NC(=O)c1cccc(S(=O)(=O)N2CCN(Cc3ccccc3)CC2)c1 (stereo not given) | inconclusive: 12.6 µM [activator, partial curve] |  |
| COc1cc(NC(=S)NCCCN2CCOCC2)cc(OC)c1OC |  | inactive: -3.66% |
| CCc1ccc(NC(=O)CC2C(=O)N(c3cccc(C)c3)C(=O)N2C2CC2)cc1 (stereo not given) | inconclusive: 3.98 µM [activator, full curve, poor fit] |  |
| Cc1[nH]n(-c2ccccc2)c(=O)c1N=Nc1ccccc1C(=O)N1CCOCC1 | inconclusive: 35.5 µM [activator, single point] |  |
| CCC(CC)c1nnc(NC(=O)C2CCCO2)s1 (stereo not given) | inconclusive: 35.5 µM [activator, single point] |  |
